Measurements: PubChem BioAssay AID2685 (National Center for Advancing Translational Sciences (NCATS), 2010)
The list shows a part of the results. Further columns of the screen follow, without active or inactive calls. Compounds called inactive in the main read-out are mostly missing here. Potencies come from curve fits of mixed quality, noted in brackets.

Assay: qHTS Assay for Lipid Storage Modulators in Drosophila S3 Cells;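 on cell number change: cells counted by Cell Tracker Red CMTPX staining in the red channel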
Settings: BODIPY lipid droplet fluorescence, 18-24 h; for cell number change: measured here: cell count max response, cells fed with added oleic acid
Method in brief: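 Laser-scanning cytometry quantifies lipid droplet accumulation (500–530 nm total intensity; droplet/cell object ratio) in oleic acid-fed (400 uM added) Drosophila S3 cells treated with a concentration series. 20 uM Triacsin C defined 100% inhibition.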

[1] = measured here: cell number channel AC50, cells fed with added oleic acid
[2] = measured here: lipid fluorescence (Fed channel) AC50, cells fed with added oleic acid

Q: Which cell number change does the source give for Clc1ccccc1CSc1nnc(-c2ccccn2)n1Cc1ccco1 here?
A: 59.8%

Q: What about the AC50 [1] of the same molecule?
A: 29.1 µM [rising, single point]

Q: What does the source list for O=C(Cn1cnc2ccccc2c1=O)Nc1nc2ccccc2s1?
A: cell number change: -2.55%; AC50 [2]: 0.092 µM [falling, full curve, poor fit]

Q: With Cc1cc(C(F)(F)F)n(-c2nc(C(=O)Nc3ccccc3Oc3ccccc3)cs2)n1 as the molecule, how does the AC50 [2] read?
A: 0.13 µM [rising, full curve, poor fit]

Q: What does the source list for CN(Cc1nccn1C)C(=O)c1cc(COc2ccc3ncccc3c2)on1?
A: cell number change: -23.2%; AC50 [2]: 23.1 µM [falling, single point]

Q: Which cell number change does the source give for Cc1nnc(NC(=O)c2ccc3nccnc3c2)s1 here?
A: 11.5%

Q: With O=C(c1cccs1)N1CCC(N2CCN(c3ccccc3)CC2)CC1 as the molecule, how does the cell number change read?
A: -21.8%

Q: And the AC50 [2]?
A: 11.6 µM [rising, single point]

Q: With CCCc1cc(C(=O)Nc2ccn(Cc3ccc(C)cc3)n2)no1 as the molecule, how does the cell number change read?
A: 17.5%

Q: What does the source list for Cc1cccc(C)c1NC(=O)CSc1nnc(-c2cnccn2)n1C?
A: cell number change: -11.6%; AC50 [2]: 29.1 µM [rising, single point]

Q: With Cn1c2c(c(O)c(-c3ccccc3)c1=O)C(=O)CC(C)(C)C2 as the molecule, how does the cell number change read?
A: 50%

Q: And the AC50 [1]?
A: 29.1 µM [rising, single point]

Q: What does the source list for Cc1ccc(N2CCN(Cc3ccccc3)CC2=O)c(C)c1?
A: cell number change: -3.94%; AC50 [2]: 0.0291 µM [rising, full curve]

Q: For C=CCN(CC=C)C(=O)c1cccc(OC2CCN(S(=O)(=O)N(C)C)CC2)c1, which cell number change is on record?
A: -29.4%

Q: What about the AC50 [2] of the same molecule?
A: 29.1 µM [falling, single point]

Q: Which results are given for CNc1ccc(C(=O)OCC(=O)Nc2ccnn2C(C)C)cc1[N+](=O)[O-]?
A: cell number change: -1.1%; AC50 [2]: 1.03 µM [rising, partial curve, poor fit]

Q: Which cell number change does the source give for Cc1cccc(N2C(=O)Cc3ccccc3C2=O)c1 here?
A: 5.56%

Q: With CC(=O)NC(c1cccs1)c1cc([N+](=O)[O-])c2cccnc2c1O (configuration not stated) as the molecule, how does the cell number change read?
A: 3.12%

Q: And the AC50 [2]?
A: 29.1 µM [rising, single point]

Q: With CCOC(=O)N1CCN(C(=O)N2CCOCC2)CC1 as the molecule, how does the cell number change read?
A: -24.8%

Q: And the AC50 [2]?
A: 6.51 µM [falling, partial curve, poor fit]

Q: Which cell number change does the source give for O=C(Nc1ccc(S(=O)(=O)N2CCOCC2)cc1)c1ccc(CN2CCc3ccccc3C2)cc1 here?
A: -19.2%

Q: With CC1(NC(=O)CCNC(=O)c2ccc(C(C)(C)C)cc2)CCS(=O)(=O)C1 (configuration not stated) as the molecule, how does the cell number change read?
A: 2.26%

Q: What about the AC50 [2] of the same molecule?
A: 0.103 µM [falling, partial curve, poor fit]

Q: Which results are given for CN1C(=S)SC(N(O)C(=O)Nc2ccccc2)C1(C)C (configuration not stated)?
A: cell number change: 19.5%; AC50 [2]: 0.0731 µM [falling, partial curve, poor fit]

Q: Which results are given for Cc1ccc(C)c(NC(=O)CN(C)C(=O)c2cc3ccccc3o2)c1?
A: cell number change: 3.85%; AC50 [2]: 11.6 µM [rising, partial curve]

Q: Which cell number change does the source give for O=S(=O)(Cc1ccccc1)Nc1ccc(F)cc1 here?
A: 12.3%

Q: Which cell number change does the source give for CCc1cccc(NC(=O)Cn2c3[n+](c4ccc(C(F)(F)F)cc42)CCCCC3)c1 here?
A: 21%

Q: What about the AC50 [2] of the same molecule?
A: 32.6 µM [rising, single point]

Q: For Cc1cccc2c1N1C(=O)c3c(C(=O)O)cccc3C1CC2C (configuration not stated), which cell number change is on record?
A: 1.04%

Q: Which cell number change does the source give for C/C(=N\Nc1ccccn1)c1cccs1 here?
A: 37.8%

Q: For O=C(NNC(=O)c1ccc2c(c1)OCO2)NC1CCCCC1, which cell number change is on record?
A: 6.98%

Q: What about the AC50 [1] of the same molecule?
A: 1.84 µM [rising, single point]

Q: What about the AC50 [2] of the same molecule?
A: 3.26 µM [rising, single point]

Q: For COc1ccc(NC(=O)/C(=C\c2ccc(F)cc2)NC(=O)c2ccco2)cc1, which cell number change is on record?
A: -23%

Q: For CC(C)C[C@H](NC(=O)NCc1ccc(Cl)cc1)C(=O)O, which AC50 [2] is on record?
A: 7.31 µM [falling, partial curve]

Q: Which results are given for CCOC(=O)c1c(CN2CCOCC2)n(-c2ccccc2)c2ccc(O)cc12?
A: cell number change: 13.8%; AC50 [2]: 18.4 µM [rising, partial curve]

Q: With O=C(N/N=C/c1ccc(OC(F)F)cc1OC(F)F)c1ccc(Br)cc1 as the molecule, how does the cell number change read?
A: -1.58%

Q: What about the AC50 [2] of the same molecule?
A: 1.84 µM [rising, full curve]

Q: With COc1ccccc1-c1cc(C(F)(F)F)nc(N2CCCCC2)n1 as the molecule, how does the cell number change read?
A: 28.4%

Q: With COc1cc(C(C)=O)ccc1OCC(O)CN1CCN(S(=O)(=O)c2ccccc2)CC1 (configuration not stated) as the molecule, how does the cell number change read?
A: 7.1%

Q: For Cc1ccc(-n2c(=O)[nH]cc(C(=O)Nc3ccc4c(c3)OCO4)c2=O)cc1C, which AC50 [1] is on record?
A: 1.84 µM [rising, partial curve]

Q: Which AC50 [2] does the source give for C/C(CC(O)c1ccc2ccccc2n1)=N/O (configuration not stated) here?
A: 7.31 µM [falling, partial curve]

Q: For CC1=NC(C(F)(F)F)(C(F)(F)F)C2=C(CC(C)(C)CC2=O)N1Cc1ccco1, which cell number change is on record?
A: -9.18%

Q: What about the AC50 [1] of the same molecule?
A: 0.58 µM [falling, full curve, poor fit]

Q: And the AC50 [2]?
A: 3.26 µM [falling, single point]

Q: Which cell number change does the source give for NC(=O)c1ccc(NC(=O)CSc2nc3ccccc3c(=O)n2CCCN2CCOCC2)cc1 here?
A: -15.1%

Q: For CC(=O)C(C(C)=O)C(c1ccccc1)c1nc2ccccc2[nH]c1=O (configuration not stated), which cell number change is on record?
A: 92.3%

Q: And the AC50 [1]?
A: 29.1 µM [rising, partial curve, poor fit]

Q: What does the source list for CCC(=O)Oc1ccc(C(=O)Nc2ccc3c(c2)OCO3)cc1?
A: cell number change: -13.6%; AC50 [2]: 29.1 µM [falling, single point]

Q: Which results are given for COC(=O)c1ccc(Nc2ncnc3sccc23)cc1?
A: cell number change: 66.7%; AC50 [1]: 29.1 µM [rising, single point]

Q: For O=c1c2ccccc2c(C=NC2CCS(=O)(=O)C2)c(O)n1-c1ccccc1 (configuration not stated), which cell number change is on record?
A: 1.67%

Q: And the AC50 [2]?
A: 0.164 µM [rising, full curve, poor fit]

Q: For O=C(c1ccccc1SCc1ccccc1)N1CCOCC1, which cell number change is on record?
A: -39.2%

Q: What about the AC50 [1] of the same molecule?
A: 32.6 µM [falling, single point]

Q: And the AC50 [2]?
A: 29.1 µM [falling, single point]

Q: Which cell number change does the source give for O=C(Nc1sc2c(c1C(=O)O)CCC2)c1ccco1 here?
A: 33.6%

Q: And the AC50 [1]?
A: 0.651 µM [rising, full curve, poor fit]

Q: And the AC50 [2]?
A: 0.013 µM [falling, full curve]

Q: With CC1CCCN(c2nc3c(c(=O)[nH]c(=O)n3C)n2CCCc2ccccc2)C1 (configuration not stated) as the molecule, how does the AC50 [2] read?
A: 6.51 µM [falling, single point]

Q: Which cell number change does the source give for CCOC(=O)C1=C(C)NC(C)=C(C(=O)OCC)C1C(=O)OCC(=O)N(C)C here?
A: 5.86%

Q: And the AC50 [2]?
A: 0.0058 µM [falling, full curve, poor fit]

Q: For COc1ccc(-c2cn3cccnc3n2)cc1NC(=O)c1cc(OC)c(OC)c(OC)c1, which cell number change is on record?
A: -23.8%

Q: What does the source list for O=C(NC1CCN(C(=S)Nc2ccc(Cl)cc2)CC1)c1ccco1?
A: cell number change: 3.85%; AC50 [1]: 6.51 µM [rising, single point]

Q: With CN1CCN(C(=O)c2cc3ccccc3cc2O)CC1 as the molecule, how does the cell number change read?
A: 2.47%

Q: With CC(=O)c1ccc([N+](=O)[O-])c(CS(=O)(=O)c2ccccc2)c1 as the molecule, how does the cell number change read?
A: -18.1%

Q: With O=C(COC(=O)c1ccc(O)cc1O)NC1CC1 as the molecule, how does the cell number change read?
A: -4.64%

Q: And the AC50 [2]?
A: 5.8 µM [rising, single point]

Q: What does the source list for Cc1ccccc1C(=O)N1CCC(C(=O)Nc2ccc3c(c2)OCO3)CC1?
A: cell number change: 11.1%; AC50 [2]: 0.0651 µM [rising, full curve, poor fit]

Q: For O=C(c1cc(-c2ccc(Cl)cc2Cl)on1)N1CCCC1, which cell number change is on record?
A: 5.22%

Q: What about the AC50 [2] of the same molecule?
A: 2.91 µM [rising, single point]

Q: Which cell number change does the source give for COc1ccccc1CCNC(=O)C1CCC(=O)N(Cc2cccc(F)c2)C1 (configuration not stated) here?
A: 19.5%

Q: And the AC50 [1]?
A: 0.00517 µM [rising, full curve, poor fit]

Q: For CCOC(=O)c1ccc(NC(=S)N2CCN(C)CC2)cc1, which cell number change is on record?
A: -34.3%

Q: What about the AC50 [1] of the same molecule?
A: 0.0651 µM [falling, full curve, poor fit]

Q: For O=C(Nc1ccc(Br)cc1F)C1CC(=O)N(C2CCCCC2)C1 (configuration not stated), which cell number change is on record?
A: 7.46%

Q: With CC(=O)N1CCN(c2ccccc2NC(=O)COc2cc(C)ccc2C(C)C)CC1 as the molecule, how does the cell number change read?
A: 129%

Q: And the AC50 [1]?
A: 2.06 µM [rising, full curve]

Q: For CCOC(=O)C1=C(N)Oc2c(oc(CO)cc2=O)C1c1ccccc1 (configuration not stated), which AC50 [2] is on record?
A: 0.0291 µM [rising, full curve]

Q: With CCC(=O)N1CCCc2cc(S(=O)(=O)NCc3cccs3)ccc21 as the molecule, how does the cell number change read?
A: 0.271%

Q: And the AC50 [2]?
A: 11.6 µM [rising, partial curve]

Q: For COc1cccc(OC)c1NC(=O)C1CCCN1C(=O)NCc1ccccc1 (configuration not stated), which AC50 [2] is on record?
A: 16.4 µM [falling, partial curve]

Q: With O=C(NC1CC1)c1ccc(CS(=O)c2ccc(Br)cc2)o1 (configuration not stated) as the molecule, how does the cell number change read?
A: 1.65%

Q: Which AC50 [2] does the source give for O=C(CN1CCN(c2ccccc2O)CC1)Nc1cc(S(=O)(=O)N2CCCC2)ccc1Cl here?
A: 4.61 µM [falling, full curve, poor fit]

Q: Which results are given for O=C(CN1CCN(Cc2ccccc2)CC1)Nc1ccc(N2CCOCC2)cc1?
A: AC50 [1]: 1.46 µM [falling, full curve]; AC50 [2]: 1.46 µM [falling, full curve]

Q: Which cell number change does the source give for CCOC(=O)c1ccc(NC(=O)CCc2ccc(CC)o2)cc1 here?
A: 0.107%

Q: And the AC50 [2]?
A: 3.26 µM [falling, single point]

Q: Which cell number change does the source give for Cc1sc2ncnc(SCC(=O)c3ccc4c(c3)OCCO4)c2c1-c1ccccc1 here?
A: 9.21%

Q: What about the AC50 [2] of the same molecule?
A: 10.3 µM [rising, partial curve, poor fit]

Q: With Cc1cc(C)cc(NS(=O)(=O)c2ccc(NC(=S)Nc3ccccc3)cc2)c1 as the molecule, how does the cell number change read?
A: -66.7%

Q: What about the AC50 [1] of the same molecule?
A: 1.84 µM [falling, partial curve]

Q: Which cell number change does the source give for O=C(Nc1cccc(F)c1)NC1CCCc2ccccc21 (configuration not stated) here?
A: 35%

Q: And the AC50 [1]?
A: 17.8 µM [rising, partial curve, poor fit]

Q: For O=C(/C=C/c1cccnc1)c1ccc(O)cc1, which cell number change is on record?
A: -58.1%

Q: And the AC50 [1]?
A: 3.26 µM [falling, partial curve, poor fit]

Q: What about the AC50 [2] of the same molecule?
A: 5.17 µM [falling, partial curve, poor fit]

Q: For CN(C)CCNC(=O)c1onc(CSc2nc3ccccc3[nH]2)c1C(=O)NCCN(C)C, which cell number change is on record?
A: 6.29%

Q: For Cc1cc(OCC(=O)N2CCC[C@@H]2C(=O)O)c2c(C)c(C)c(=O)oc2c1, which cell number change is on record?
A: 14.6%

Q: With N#Cc1ccc(C(=O)NC2CCCCCCC2)cc1 as the molecule, how does the cell number change read?
A: -1.68%
